Experimental data taken from patent EP2151237A1, “PHARMACEUTICAL COMPOSITION COMBINING A NON-STEROIDAL ANTI-INFLAMMATORY AGENT AND AN ANTICONVULSANT AGENT” (priority 2007, dated 2008).
For at least one compound, name, drawing or mass did not settle the structure.

Tests used:
[1] = in its acid form; quicker than Diclofenac; cited from earlier work
[2] = test system: A-carrageenin-induced hyperalgesia; experiment: A-carrageenin-induced peripheral inflammatory hyperalgesia in rat paw, paw latency (SLP); conditions: non-swollen contralateral rear paw

## Cc1cnc(NC(=O)C2=C(O)c3ccccc3S(=O)(=O)N2C)s1 [Meloxicam, 4-hydroxy-2-methyl-N-(5-methyl-2-thiazolyl)-2H benzotiazine-3-carboxamide-1,1-dioxide]
[1]
  rate of coming out from membranes relative to Diclofenac: about 2 fold
[2]
  contralateral paw response latencies: not in the non-swollen contralateral rear paw
